PubChem BioAssay AID493246, Drosophila RNAi Screening Center – 2011
Assay: 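Genes fly cells need to grow and stay alive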 (primary screen). Cell system: Drosophila Kc and S2R+ cells. Knock-down reagent: long dsRNA against Drosophila genes. Measured: 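Raw, unnormalised count of remaining cells in each well; per-plate z-scores of cell number underlie the calls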. Reading the numbers: Kc cell number and S2R+ cell number: higher = more cells remaining. Active means: 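Counted as a hit if cell number falls by a z-score of at least 3 within its plate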.
The deposit covers about 21,000 reagents; this is a random part of those with a known target gene and a result. Of all reagents, 429 (2%) got an active call. 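Values are raw and not normalised between plates; calls rest on per-plate z-scores that were not deposited.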 Reagents against one gene are numbered here. The record does not give: the amount of reagent, the time to read-out.

no.	gene	reagent no.	Kc cell number, rep 1	Kc cell number, rep 2	S2R+ cell number, rep 1	S2R+ cell number, rep 2	outcome
1	Sting	1	1.77e6	1.79e6	1.44e6	1.66e6	inactive
2	rasp	1	1.47e6	1.45e6	1.10e6	1.17e6	inactive
3	Prosbeta7	1	1.02e6	1.07e6	6.75e5	7.98e5	active
4	CG8172	1	1.70e6	1.86e6	1.25e6	1.34e6	inactive
5	Rab14	1	1.36e6	1.33e6	1.29e6	1.32e6	inactive
6	corolla	1	1.51e6	1.58e6	1.09e6	1.18e6	inactive
7	ACXA	1	1.55e6	1.59e6	1.24e6	1.39e6	inactive
8	CG5103	1	1.33e6	1.43e6	1.21e6	1.35e6	inactive
9	CG7328	1	1.62e6	1.69e6	1.39e6	1.49e6	inactive
10	Teh3	1	1.35e6	1.59e6	1.14e6	1.31e6	inactive
11	Lnk	1	5.06e5		7.45e5		inactive

Continued; the last 2 above are carried over.
no.	gene	reagent no.	Kc cell number, rep 1	Kc cell number, rep 2	S2R+ cell number, rep 1	S2R+ cell number, rep 2	outcome
10	Teh3	1	1.35e6	1.59e6	1.14e6	1.31e6	inactive
11	Lnk	1	5.06e5		7.45e5		inactive
12	CG8043	1	1.30e6	1.43e6	1.14e6	1.32e6	inactive
13	Scm	1	1.50e6	1.46e6	1.24e6	1.30e6	inactive
14	CG7458	1	1.38e6	1.38e6	1.01e6	1.11e6	inactive
15	l(3)04053	1	1.37e6	1.40e6	1.02e6	1.17e6	inactive
16	CG15725	1	1.53e6	1.47e6	1.01e6	1.11e6	inactive
17	CG34167	1	1.44e6	1.49e6	9.37e5	1.11e6	inactive
18	Capa	1	5.38e5		9.35e5		inactive
19	PIG-H	1	1.59e6	1.78e6	1.37e6	1.47e6	inactive
20	mRpS22	1	4.84e5		7.83e5		inactive
21	Pez	1	1.65e6	1.57e6	1.21e6	1.37e6	inactive
22	mdy	1	1.41e6	1.48e6	8.68e5	1.06e6	inactive
23	mdy	2	1.35e6	1.43e6	1.35e6	1.44e6	inactive
24	CG17239	1	1.45e6	1.51e6	1.06e6	1.18e6	inactive
